The source of these data is PubChem BioAssay AID2685 (National Center for Advancing Translational Sciences (NCATS), 2010).

This assay is described as follows: qHTS Assay for Lipid Storage Modulators in Drosophila S3 Cells.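 For cell number change: cells counted by Cell Tracker Red CMTPX staining in the red channel.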 Particulars: BODIPY lipid droplet fluorescence, 18-24 h; for cell number change: measured here: cell count max response, cells fed with added oleic acid. Summed up: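 Drosophila S3 cells loaded with oleic acid (400 uM, as added) and compounds at several concentrations; lipid droplets imaged by 488-nm laser-scanning cytometry, 500–530 nm intensity and object ratio to cell channel. Percent activity normalized to 20 uM Triacsin C.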
Background: qHTS replaces the single test concentration by a dilution series.

Setting [1] is: measured here: lipid fluorescence (Fed channel) AC50, cells fed with added oleic acid.
Setting [2] is: measured here: cell number channel AC50, cells fed with added oleic acid.

Structures are written as SMILES. The list shows a part of the results. Shown are side measurements of this screen, not its main read-out; they come without a call. Most of these compounds were active or inconclusive in the main read-out, so they are no random draw. Potencies come from curve fits of mixed quality, noted in brackets.

Take `COc1ccc(N2CCN(C(=O)c3c(-c4c(F)cccc4Cl)noc3C)CC2)cc1`: the cell number change is 9.12%.
Take `Cc1ccc(C)c(Cc2c(C)nc(C)[nH]c2=O)c1`: the cell number change was -0.47%. For the same compound, the AC50 (as a rule, the midpoint of the concentration-response curve, whichever way the signal moves) under setting [1] was 2.59 µM [rising, single point].
`CCN1C(=O)/C(=C2\C=Cc3ccccc3N2CC)SC1=S`: the cell number change is -57.2%. The AC50 under setting [2] is 2.59 µM [falling, partial curve, poor fit].
Regarding `O=C(O)c1ccc(-c2sc(Nc3ccccc3)n[n+]2-c2ccc(F)cc2)cc1`, the AC50 under setting [1] is 29.1 µM [rising, single point].
Consider `COc1ccc(N2CCN(C(=O)Cc3cccs3)CC2)cc1`, for which the cell number change came to 30.6%. Moreover, the AC50 under setting [2] was 29.1 µM [rising, single point].
As for `CCC(NC(=O)Nc1nnc(C(F)(F)F)s1)(C(F)(F)F)C(F)(F)F`, under setting [1], the AC50 is 5.8 µM [falling, single point].
For the compound `COc1cccc(/C=N/Nc2nc(Nc3ccc([N+](=O)[O-])cc3)nc(N3CCCC3)n2)c1O`, the cell number change was -44.7%. Besides, under setting [2], the AC50 was 29.1 µM [falling, single point].
Consider `CCN(CC(=O)NCc1ccc(Cl)cc1)CC(=O)NC1(C#N)CCCC1`, for which the cell number change amounted to 10.9%. The AC50 under setting [1] is 29.1 µM [rising, single point].
With `NC(=O)COC(=O)CC1CC2CCC1C2` (stereo not given), the cell number change stood at 14.1%.
As for `CCC(C)(C)NC(=O)CN(C(=O)CCC(=O)Nc1nccs1)c1ccc2c(c1)OCO2`, the cell number change stood at 23%. The AC50 under setting [2] is 1.84 µM [rising, full curve, poor fit].
Turning to `COc1ccc(-c2cc(C(=O)N(C)CC(=O)Nc3ccccc3Cl)c3ccccc3n2)cc1OC`, the cell number change was -12.6%. For the same compound, under setting [1], the AC50 is 1.46 µM [rising, partial curve].
Take `CCOC(=O)C(CC)n1cnc2c(nnn2-c2ccc(C)cc2)c1=O` (stereo not given): the cell number change came to 0.817%. Besides, under setting [1], the AC50 was 6.51 µM [rising, full curve, poor fit].
In the case of `CC(=O)Nc1nc(CCN2C(=O)c3ccccc3C2=O)cs1`, the cell number change was -7.56%. In addition, under setting [1], the AC50 was 6.51 µM [rising, single point].
As to `CC1CCc2sc(C(=O)NNC(=O)c3ccncc3)cc2C1` (stereo not given), under setting [1], the AC50 is 6.51 µM [rising, single point].
In the case of `O=C(Cc1ccccc1)N/N=C/c1cccs1`, the cell number change was -28.5%. Under setting [2], the AC50 is 0.461 µM [falling, full curve, poor fit]. Also, the AC50 under setting [1] was 1.3 µM [falling, full curve, poor fit].
Take `Cc1nc2c(sc3nc4c(cc32)COC(C)(C)C4)c(=O)n1Cc1ccccc1`: the cell number change amounted to 79.7%. Further, the AC50 under setting [2] was 5.8 µM [rising, partial curve, poor fit]. Further, the AC50 under setting [1] is 0.366 µM [rising, full curve].
With `COc1ccc(CCN(C)C2CCCN(C(=O)c3sccc3C)C2)cc1OC` (stereo not given), the cell number change is -10.9%.
For `COc1cc(C(C)=O)ccc1Oc1ncnc2c1cnn2-c1cccc(Cl)c1`, the cell number change turned out to be 19.2%. Under setting [2], the AC50 is 0.103 µM [rising, full curve, poor fit]. In addition, the AC50 under setting [1] is 2.91 µM [rising, full curve].
With `Cc1ccccc1CC(=O)Nc1ccc(C(=O)N2CCCC2)cc1`, the cell number change was -19.6%. The AC50 under setting [1] is 2.59 µM [falling, full curve, poor fit].
On to `CCN(CC(=O)Nc1cccc(OC)c1)CC(=O)Nc1ccc(Br)c(C)c1`, for which the cell number change is -29.2%.
Regarding `O=C1CC(=C(c2ccccc2)c2ccccc2)C(=O)N1CCCCN1CCN(c2ccccc2)CC1`, the cell number change is -2.5%.
With `COC(=O)C1CCN(C(=O)Cc2c(OC)ccc3cc(Br)ccc23)CC1`, the cell number change is -68.1%. Under setting [2], the AC50 was 29.1 µM [falling, single point]. Besides, the AC50 under setting [1] is 29.1 µM [falling, single point].
With `O=C(Nc1ccc([N+](=O)[O-])cc1)OCCc1ccccn1`, the AC50 runs as follows: under setting [2], 0.82 µM [rising, full curve, poor fit]; under setting [1], 0.517 µM [rising, full curve].
In the case of `CC12CCC(C(=O)NCC3CCCO3)(OC1=O)C2(C)C` (stereo not given), the cell number change was 5.94%. Also, the AC50 under setting [1] was 0.82 µM [falling, partial curve].
As for `COc1ccc(-c2nc3ccc(C(=O)NCC(OC)OC)cc3nc2-c2ccc(OC)c(OC)c2)cc1OC`, the cell number change was -14%. In addition, under setting [1], the AC50 was 1.84 µM [falling, full curve, poor fit].
`O=C(NC(Cc1ccccc1)c1nc2ccccc2[nH]1)C1CC(=O)N(c2ccc3c(c2)OCCO3)C1` (stereo not given): the cell number change is -8.19%. Further, the AC50 under setting [1] is 0.116 µM [rising, single point].
In the case of `CCC(c1nnnn1Cc1ccc(F)cc1)N1CCN(C2CCCCC2)CC1` (stereo not given), the cell number change was -31.3%. Moreover, the AC50 under setting [2] was 4.11 µM [falling, full curve]. For the same compound, under setting [1], the AC50 is 29.1 µM [falling, partial curve].
Turning to `CCN1C(=O)[C@H]2[C@@H](c3ccc(-c4ccc(Cl)c(Cl)c4)cc3)N3CCCC[C@@]3(C(=O)OC)[C@H]2C1=O`, the cell number change is -25.1%. Moreover, under setting [2], the AC50 is 0.461 µM [falling, full curve, poor fit]. The AC50 under setting [1] was 0.411 µM [rising, single point].
On to `CCOC(=O)C1CCN(C(=O)c2cccc(NS(=O)(=O)c3ccc(F)c(F)c3)c2)CC1`, for which the cell number change is 28.8%. In addition, under setting [1], the AC50 was 20.6 µM [rising, single point].
Regarding `O=C(NC1CCCCC1)c1cc(C2CC2)nn1-c1ccccc1`, the cell number change was 6.58%. Also, the AC50 under setting [2] is 3.26 µM [falling, single point]. For the same compound, the AC50 under setting [1] is 3.26 µM [falling, single point].
For `CCC1(c2ccc(C)cc2)NC(=O)N(CC(=O)Nc2cccc(S(=O)(=O)N3CCCC3)c2)C1=O` (stereo not given), the cell number change is -47.4%. Moreover, the AC50 under setting [2] is 16.4 µM [falling, single point]. Under setting [1], the AC50 is 5.17 µM [falling, single point].
For the compound `CC(=O)Nc1ccc(NC(=O)Nc2ccc(C)cc2C)cc1`, the cell number change was -39.1%. Besides, the concentration at half-maximal activity (AC50) under setting [2] is 0.731 µM [falling, full curve]. The AC50 under setting [1] is 0.461 µM [falling, full curve].
Turning to `Cc1occc1-c1nnc(SCC(=O)Nc2ccccc2-c2ccccc2)n1C`, the cell number change was -10.9%.
Turning to `Cc1cc(C)cc(OCC(=O)Nc2cccc(-c3nc4ncccc4o3)c2)c1`, the AC50 under setting [1] is 0.0517 µM [rising, full curve, poor fit].
With `C=CCNc1nc(-c2ccccn2)nnc1-c1ccccc1`, the AC50 is, setting by setting: under setting [2], 1.64 µM [rising, partial curve]; under setting [1], 1.84 µM [rising, partial curve].
As to `CCOC(=O)C1CCN(C(=O)c2ccccc2NC(=O)C2=C(C)OCCS2)CC1`, the cell number change came to 2.12%.
